Among the data in PMC11758215 are binding values, retold here.

By UniProt entry, the sequences of proteins in these tests, tags left out.
UniProt Q9CQW9: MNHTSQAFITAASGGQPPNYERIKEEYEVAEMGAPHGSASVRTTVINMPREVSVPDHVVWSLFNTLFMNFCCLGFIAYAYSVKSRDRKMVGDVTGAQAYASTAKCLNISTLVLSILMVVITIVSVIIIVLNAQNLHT

The target in the assay is T1, S100 calcium-binding protein A11 (mouse (endogenous in 4T1)) (UniProt P50543).
T1 sequence: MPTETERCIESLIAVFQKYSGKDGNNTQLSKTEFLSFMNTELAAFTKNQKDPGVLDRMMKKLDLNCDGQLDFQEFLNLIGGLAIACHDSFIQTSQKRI
As to the kind of experiment: co-IP; co-immunoprecipitation from 4T1 cells, detected by immunoblot; which antibody precipitated is not told. In general terms: In western blotting, separated proteins are transferred to a membrane and probed.

Results are given in words; binding and its absence hold for the method and conditions named. Binding seen in cells or lysates may run through a third protein. Some entries that bind do so weakly or less than the wild type.

As to IFITM3 (from UniProt Q9CQW9 1-137), the binding result is reported as “binds”.
